# From PubChem BioAssay AID540276 (National Center for Advancing Translational Sciences (NCATS), 2011)
# Values joined by “and” are separate entries in the source; they are usually repeats but may differ in a detail not shown here. Equal values may be shown once. About 5,400 (1.8%) of roughly 300,000 compounds were called active. The shares of active, inactive and inconclusive entries below differ from those in the screen. Calls come from the whole dose curve; tested in HEK293 cells. Potencies of inconclusive entries are doubtful fits and often do not repeat.
# Assay: qHTS for inhibitors of binding or entry into cells for Marburg Virus
# Details: Marburg virus pseudotyped entry inhibition, cell reporter; activity change, negative = inhibition: at 37.8 µM (top of the series) unless noted
# % is set by controls: 0 for no effect and ±100 for the full control effect; potency is the fitted concentration of half-maximal effect.
Compound,Potency,"activity change, negative = inhibition"
O=C(Cc1ccccc1)NCC(=O)Nc1cccc(Cl)c1,"inconclusive: 35.5 µM [inhibitor, single point]",–
Cc1cccn2c(=O)c(C(=O)NCCc3ccc(S(N)(=O)=O)cc3)c(O)nc12,–,inactive: 9.6% [at 46.1 µM]
CCN(CC)S(=O)(=O)c1ccc(C(=O)NCCN(C)C)cc1,"inconclusive: 17.8 µM [activator, single point]",–
CC(C)S(=O)(=O)c1csc(NC(=O)Nc2cc(Cl)ccc2Cl)c1Cl,"inconclusive: 20 µM [inhibitor, single point]",–
COCC1CCN(Cc2cn(Cc3ccccc3)nc2-c2cc3ccccc3o2)CC1,"inconclusive: 8.91 µM [inhibitor, partial curve, poor fit]",–
Nc1ccc(N=Nc2ccccc2O)c(N)c1,–,inactive: 14%
Cc1ccc(S(=O)(=O)N2CCN(C(=O)CCN3C(=O)c4ccccc4C3=O)CC2)cc1C,"inconclusive: 0.794 µM [inhibitor, full curve, poor fit]",–
O=C(Nc1ccc(Cl)c(C(F)(F)F)c1)C1CCN(S(=O)(=O)c2cccc3nonc23)CC1,"inconclusive: 35.5 µM [inhibitor, single point]",–
O=C(c1cccc(Cl)c1)C1CCCN(Cc2ccc(N3CCNC3=O)cc2)C1 (stereo unspecified),"inconclusive: 11.2 µM [inhibitor, partial curve, poor fit]",–
Cc1ccccc1NC(=O)c1c(C)oc2ccc(O)c(CN3CCN(C)CC3)c12,"inconclusive: 35.5 µM [inhibitor, single point]",–
CCc1ccc2oc(C(=O)Nc3ccccc3C(=O)OC)cc(=O)c2c1,–,inactive: 19.7% [at 46.1 µM]
CC(CCc1ccc(O)cc1)NCCc1ccc(O)c(O)c1 (stereo unspecified),"inconclusive: 29.1 nM [inhibitor, partial curve, poor fit] and inconclusive: 2.82 µM [inhibitor, full curve, poor fit]",–
Nc1ccccc1SC1CC(=O)N(c2ccc3c(c2)OCO3)C1=O (stereo unspecified),"inconclusive: 35.5 µM [inhibitor, single point]",–
COc1cccc(CC2(CO)CCN(Cc3cnc(-c4cccc(C)c4)nc3)CC2)c1,"inconclusive: 12.6 µM [inhibitor, partial curve, poor fit]",–
Cc1cccc(N2CCN(C(=O)Cn3nc(Cc4cccnc4)c4ccccc4c3=O)CC2)c1C,"inconclusive: 14.1 µM [inhibitor, partial curve, poor fit]",–
CCOC(=O)c1c(-c2ccc(C)o2)csc1NC(=O)CN1CCOCC1,"inconclusive: 3.98 µM [inhibitor, partial curve, poor fit]",–
O=C(CNS(=O)(=O)c1ccc2ccccc2c1)NCCc1ccccn1,–,inactive: -10.2%
Cc1ccc2c(COC(=O)c3cnc(C)cn3)cc(=O)oc2c1,–,inactive: 1.2%
CCCCC1CN2CCc3c([nH]c4ccccc34)C2(C)C1 (stereo unspecified),"inconclusive: 31.6 µM [inhibitor, partial curve, poor fit]",–
O=C(OCn1nnc2ccccc2c1=O)c1ccc2ncsc2c1,"inconclusive: 4.61 µM [inhibitor, partial curve, poor fit]",–
COc1cc(-n2c(=S)[nH]c3ccc(C)cc3c2=O)c(Cl)cc1Cl,active: 5.62 µM,–

Compound,Potency,"activity change, negative = inhibition"
Cc1cccc2nc(-c3cccnc3)c(NCCC(C)C)n12,–,inactive: 15.4%
O=C(CSc1ccc2c(c1)OCCO2)Nc1ncc(Cl)cc1Cl,"inconclusive: 0.231 µM [inhibitor, single point]",–
CC(=O)N(/N=C/c1cccc(C)c1)c1nc(-c2ccc(Br)cc2)cs1,"inconclusive: 0.259 µM [inhibitor, full curve, poor fit]",–
CS(=O)(=O)N1CCC(Oc2ccccc2C(=O)NCCCc2cccnc2)CC1,–,inactive: 11.8% [at 46.1 µM]
COc1cc(/C=N/NC(=O)CCOc2ccccc2C)cc(Br)c1O,–,inactive: -24% [at 46.1 µM]
COc1ccc(-c2cc(-c3ccccc3)[n+](C)c(-c3ccccc3)c2)cc1,active: 6.31 µM,–
COc1cc(NC(=O)C2CCCN(S(=O)(=O)c3cccc4nsnc34)C2)cc(OC)c1 (stereo unspecified),"inconclusive: 35.5 µM [inhibitor, partial curve, poor fit]",–
O=C1[C@@H]2[C@@H]3C[C@@H]([C@H]4ON=C(c5ccc(Cl)cc5Cl)[C@@H]34)[C@@H]2C(=O)N1C1CCCCC1,"inconclusive: 14.1 µM [inhibitor, single point]",–
O=C(NCCC1CCCCN1S(=O)(=O)c1ccccc1)C(=O)NCc1ccccc1F (stereo unspecified),"inconclusive: 11.2 µM [inhibitor, partial curve, poor fit]",–
CC1CCCC(NC(=O)C2CCC(CNc3c(N4CCCCC4)c(=O)c3=O)CC2)C1C (stereo unspecified),–,inactive: -0.683% [at 46.1 µM]
CCCC1(CCC)NC(=O)N(CC(=O)Nc2ccc(Cl)c(S(=O)(=O)N3CCOCC3)c2)C1=O,"inconclusive: 35.5 µM [inhibitor, single point]",–
Cc1ccc(-c2nc(N)n(C(=O)Cc3ccccc3)n2)cc1,"inconclusive: 15.8 µM [activator, single point]",–
Cc1nc(NC(=O)c2ccccc2)sc1-c1csc(NCc2ccccc2)n1,"inconclusive: 12.6 µM [inhibitor, partial curve, poor fit]",–
CCC(C)NCCOCCOc1ccc(Br)cc1 (stereo unspecified),"inconclusive: 11.2 µM [inhibitor, partial curve, poor fit]",–
Cc1nc(-n2[nH]c3c(c2=O)CCCC3)[nH]c(=O)c1Cc1ccccc1,"inconclusive: 23.1 µM [inhibitor, single point]",–
Cc1ccc2occ(CC(=O)N(Cc3ccc(C(C)C)cc3)C3CCS(=O)(=O)C3)c2c1 (stereo unspecified),"inconclusive: 35.5 µM [inhibitor, single point]",–
Clc1cccc(CSc2ccc(-c3ccco3)nn2)c1,"inconclusive: 6.31 µM [activator, single point]",–
COc1cccc(/C=N/Nc2nc3ccccc3[nH]2)c1OC,"inconclusive: 3.16 µM [activator, single point]",–
CCn1c(C)nc2cc(S(=O)(=O)Nc3ccc(C)cc3)ccc21,"inconclusive: 6.31 µM [inhibitor, full curve]",–
COc1ccc(NC(=O)COC(=O)CCCOc2ccc(Cl)cc2Cl)cc1,"inconclusive: 35.5 µM [inhibitor, single point]",–

# A draw from above in order of heavy-atom count, falling.
Compound,Potency,"activity change, negative = inhibition"
CCCC1(CCC)NC(=O)N(CC(=O)Nc2ccc(Cl)c(S(=O)(=O)N3CCOCC3)c2)C1=O,"inconclusive: 35.5 µM [inhibitor, single point]",–
O=C(NCCC1CCCCN1S(=O)(=O)c1ccccc1)C(=O)NCc1ccccc1F (stereo unspecified),"inconclusive: 11.2 µM [inhibitor, partial curve, poor fit]",–
O=C1[C@@H]2[C@@H]3C[C@@H]([C@H]4ON=C(c5ccc(Cl)cc5Cl)[C@@H]34)[C@@H]2C(=O)N1C1CCCCC1,"inconclusive: 14.1 µM [inhibitor, single point]",–
Cc1nc(NC(=O)c2ccccc2)sc1-c1csc(NCc2ccccc2)n1,"inconclusive: 12.6 µM [inhibitor, partial curve, poor fit]",–
COc1ccc(NC(=O)COC(=O)CCCOc2ccc(Cl)cc2Cl)cc1,"inconclusive: 35.5 µM [inhibitor, single point]",–
COc1cc(/C=N/NC(=O)CCOc2ccccc2C)cc(Br)c1O,–,inactive: -24% [at 46.1 µM]
CCn1c(C)nc2cc(S(=O)(=O)Nc3ccc(C)cc3)ccc21,"inconclusive: 6.31 µM [inhibitor, full curve]",–
Cc1cccc2nc(-c3cccnc3)c(NCCC(C)C)n12,–,inactive: 15.4%
Clc1cccc(CSc2ccc(-c3ccco3)nn2)c1,"inconclusive: 6.31 µM [activator, single point]",–
